Assay results reported in PubChem BioAssay AID248 (DTP/NCI, 2004).
The list shows only some results of the screen, not a fair sample: it gathers tests that were run many times, whatever their T/C, doses with no T/C, and many T/C values between a quarter and a half above the control. Further doses and runs are listed elsewhere. T/C is the treated group as % of the vehicle group. Some doses have a count of surviving animals in place of a T/C: the source holds a T/C of zero for them, seemingly a mark for toxic or unscored doses. Some doses without a T/C left all or most animals alive at the check, yet need not have been tolerated: survival well below the control is almost never listed, so the zero probably covers shortened survival too. Counts of survivors are from the toxicity check (mostly the fifth day) where no day follows; animals may have died later. Schedule codes are those of the source, read here as Q, the interval in days (D) or hours (H), X, the number of doses. Some doses were run more than once; the results are listed from low to high. Some schedule codes hold Z or #, which are not explained here. For survival time, this PubChem deposit counts one and a half times the control or more as active, and values a quarter to a half above the control carry no call in these data; other NCI protocols may use other cut-offs. Some T/C values carry the count of animals alive at the toxicity check (mostly the fifth day); where none is given, no animal had died by that day.

System: L1210 leukemia ip in BDF1 mice, survival T/C
Assay: NCI In Vivo Anticancer Drug Screen. Data for tumor model L1210 Leukemia (intraperitoneal) in B6D2F1 (BDF1) mice
Settings: T/C endpoint: mean survival time, higher T/C = longer survival
[1] = dose: 25.0 mg/kg/injection, schedule: Q04DX003 (ip), vehicle: saline
[2] = dose: 50.0 mg/kg/injection, schedule: Q04DX003 (ip), vehicle: saline
[3] = dose: 100.0 mg/kg/injection, schedule: Q04DX003 (ip), vehicle: saline
[4] = dose: 300.0 mg/kg/injection, schedule: Q01DX001 (ip), vehicle: saline
[5] = dose: 80.0 mg/kg/injection, schedule: Q01DX001 (ip), vehicle: saline
[6] = dose: 200.0 mg/kg/injection, schedule: Q04DX003 (ip), vehicle: saline
[7] = dose: 400.0 mg/kg/injection, schedule: Q04DX003 (ip), vehicle: saline
[8] = dose: 400.0 mg/kg/injection, schedule: Q01DX001 (ip), vehicle: Klucel (hydroxypropylcellulose) (HPC)
[9] = dose: 400.0 mg/kg/injection, schedule: Q01DX009 (ip), vehicle: Klucel (hydroxypropylcellulose) (HPC)
[10] = dose: 100.0 mg/kg/injection, schedule: Q01DX001 (ip), vehicle: saline
[11] = dose: 200.0 mg/kg/injection, schedule: Q01DX001 (ip), vehicle: saline
[12] = dose: 400.0 mg/kg/injection, schedule: Q01DX001 (ip), vehicle: saline

For `CCNC1=C(N2CC2)C(=O)C(NCC)=C(N2CC2)C1=O`, the T/C (dose: 0.37 mg/kg/injection, schedule: Q01DX009 (ip), vehicle: saline) was 134 % of control, the T/C (dose: 0.75 mg/kg/injection, schedule: Q01DX009 (ip), vehicle: saline) was 127 % of control and the T/C (dose: 1.5 mg/kg/injection, schedule: Q04DX003 (ip), vehicle: saline) was 146 % of control. The T/C (dose: 1.56 mg/kg/injection, schedule: Q04DX003 (ip), vehicle: saline) was 132 % of control, the T/C (dose: 3.0 mg/kg/injection, schedule: Q04DX003 (ip), vehicle: saline) was 128 % of control and the survivor count (dose: 6.0 mg/kg/injection, schedule: Q01DX001 (ip), vehicle: saline) was 5 of 6. For the same molecule, the survivor count (dose: 6.0 mg/kg/injection, schedule: Q04DX003 (ip), vehicle: saline) was 3 of 6, the survivor count (dose: 12.5 mg/kg/injection, schedule: Q04DX003 (ip), vehicle: saline) was 6 of 6 and the survivor count [1] was 4 of 6. For the same molecule, the survivor count [2] was 5 of 6 and the survivor count [3] was 0 of 6.
For `NCCSC1(O)C(=O)c2ccccc2-c2ccccc21` (centres undefined), the survivor count [4] was 3 of 6.
With `ClCCN(CCCl)CCNc1ccnc2cc(Cl)ccc12` the survivor count [5] was 1 of 6.
In the case of `N#CC(O)C1(O)CCCCC1` (centres undefined), the survivor count [3] is reported as 0 of 6, the survivor count [6] is reported as 0 of 6 and the survivor count [7] is reported as 0 of 6.
`N#Cc1cc(Cl)cn1O` was tested, and the survivor count (dose: 400.0 mg/kg/injection, schedule: Q04DX002 (ip), vehicle: other) was 1 of 3.
With `O=C(O)C(=O)c1ccc(-c2ccccc2)cc1` the survivor count (dose: 300.0 mg/kg/injection, schedule: Q01DX001 (ip), vehicle: carboxymethylcellulose (CMC)) was 2 of 6.
For `CC(=O)c1coc(=O)cc1O`, the survivor count (dose: 200.0 mg/kg/injection, schedule: Q01DX001 (ip), vehicle: Klucel (hydroxypropylcellulose) (HPC)) was 5 of 6 and the survivor count [8] was 2 of 6.
For `O=C1NC2(CCCCC2)C(=O)N1CCN(CCCl)CCCl`, the T/C (dose: 16.0 mg/kg/injection, schedule: Q04DX003 (ip), vehicle: saline) was 126 % of control, the T/C [1] was 125, 130, 136 % of control and the T/C (dose: 35.0 mg/kg/injection, schedule: Q04DX003 (ip), vehicle: saline) was 131 and 137 % of control [5 of 6 alive]. The survivor count (dose: 50.0 mg/kg/injection, schedule: Q01DX009 (ip), vehicle: saline) was 2 of 6, the survivor count [2] was 5 of 6 and the survivor count (dose: 100.0 mg/kg/injection, schedule: Q01DX009 (ip), vehicle: saline) was 2 of 6. The survivor count [3] was 3 of 6, the survivor count (dose: 200.0 mg/kg/injection, schedule: Q01DX009 (ip), vehicle: saline) was 0 of 6 and the survivor count [6] was 0 of 6.
For `NN(CC1=COc2ccccc2O1)Cc1ccccc1`, the survivor count [9] was 0 of 6.
`O=c1nc2n(O)cccc-2c(=O)[nH]1` was tested, and the survivor count (dose: 400.0 mg/kg/injection, schedule: Q04DX003 (ip), vehicle: Klucel (hydroxypropylcellulose) (HPC)) was 1 of 6.
In the case of `N#CCC(C(=O)c1cccnc1)c1ccccc1` (centres undefined), the survivor count (dose: 400.0 mg/kg/injection, schedule: Q04DX002 (ip), vehicle: gum acacia) is reported as 3 of 3.
In the case of `CCOC(=O)N/N=C/c1ccc(N(C)CCC#N)cc1`, the survivor count (dose: 100.0 mg/kg/injection, schedule: Q04DX003 (ip), vehicle: saline with Tween-80) is reported as 6 of 6 and the T/C (dose: 400.0 mg/kg/injection, schedule: Q01DX001 (ip), vehicle: saline with Tween-80) is reported as 137 % of control.
In the case of `COc1cc2c(c(OC)c1OC)-c1ccc(=O)c(OC)cc1[C@@H](NC(=O)CCl)CC2`, the survivor count [9] is reported as 1 of 6.
With `S=C(SSC(=S)N1CCOCC1)N1CCOCC1` the survivor count [8] was 1 of 6 and the survivor count [7] was 1 of 4.
In the case of `c1ccc2c(c1)CCc1c-2[nH]c2ccccc12`, the survivor count (dose: 400.0 mg/kg/injection, schedule: Q01DX009 (ip), vehicle: saline with Tween-80) is reported as 3 of 6.
With `CCc1ccc2ccc3c4ccccc4ccc3[n+]2c1` the survivor count [5] was 6 of 6, the survivor count [10] was 0 of 4 and the survivor count [11] was 0 of 4. The survivor count [12] was 0 of 4.
For `CCOC(=O)OCc1ccco1`, the survivor count (dose: 400.0 mg/kg/injection, schedule: Q01DX009 (ip), vehicle: carboxymethylcellulose (CMC)) was 0 of 3 and 1 of 6.
In the case of `CCCC(CN)(CCN1CCOCC1)c1cccc2ccccc12` (centres undefined), the survivor count [7] is reported as 5 of 6.
For `CC12C=CC(O1)C1C(=O)OC(=O)C12` (centres undefined), the survivor count (dose: 300.0 mg/kg/injection, schedule: Q01DX001 (ip), vehicle: other) was 0 of 6.
`CC(=O)Nc1cc2[nH]cnc2c(Br)n1` was tested, and the survivor count (dose: 200.0 mg/kg/injection, schedule: Q01DX005 (ip), vehicle: saline) was 1 of 4 and the survivor count (dose: 400.0 mg/kg/injection, schedule: Q01DX005 (ip), vehicle: saline) was 0 of 4.
`CCc1occ(C(=O)N2Cc3cc4ccccc4nc3C2)c1C1SCCS1` was tested, and the survivor count [12] was 6 of 6.
In the case of `O=C(CCCCCCC(=O)C[n+]1ccccc1Br)C[n+]1ccccc1Br`, the survivor count (dose: 50.0 mg/kg/injection, schedule: Q01DX001 (ip), vehicle: saline) is reported as 0 of 6, the survivor count [10] is reported as 0 of 6 and the survivor count [11] is reported as 0 of 6.
In the case of `CC(C)=NC(=O)NO.[Cl][Mn][Cl]`, the survivor count [4] is reported as 1 of 6 and the survivor count (dose: 300.0 mg/kg/injection, schedule: Q01DX009 (ip), vehicle: saline) is reported as 0 of 6.
`NOCCCCCCON` was tested, and the survivor count [7] was 2 of 4.
`O=C1C=CC(=O)N1` was tested, and the survivor count (dose: 5.0 mg/kg/injection, schedule: Q04DX003 (ip), vehicle: saline) was 3 of 6, the survivor count (dose: 5.68 mg/kg/injection, schedule: Q01DX009 (ip), vehicle: saline with Tween-80) was 2 of 6 and the survivor count (dose: 8.52 mg/kg/injection, schedule: Q01DX009 (ip), vehicle: saline with Tween-80) was 0 of 6. The survivor count (dose: 10.0 mg/kg/injection, schedule: Q01DX001 (ip), vehicle: acetone) was 1 of 6 and the survivor count (dose: 20.0 mg/kg/injection, schedule: Q01DX001 (ip), vehicle: acetone) was 0 of 6.
With `NC(=O)OCc1c(O)c2c(c(O)c1COC(N)=O)C(=O)C=CC2=O` the survivor count (dose: 200.0 mg/kg/injection, schedule: Q01DX009 (ip), vehicle: water) was 2 of 6 and the survivor count (dose: 400.0 mg/kg/injection, schedule: Q01DX009 (ip), vehicle: water) was 0 of 6.
With `CCC(=O)C(CCN(C)C)(c1ccccc1)c1ccccn1` (centres undefined) the survivor count (dose: 100.0 mg/kg/injection, schedule: Q01DX Z (ip), vehicle: saline) was 2 of 6.
With `CCCOP(=O)(N1CC1(C)C)N1CC1(C)C` (centres undefined) the survivor count (dose: 400.0 mg/kg/injection, schedule: Q04DX002 (ip), vehicle: saline) was 3 of 3.
In the case of `CC1([N+](=O)[O-])COP(=O)(O)OC1` (centres undefined) (tested in a mixture with another compound), the survivor count [12] is reported as 0 of 4.
